In PubChem BioAssay AID493014 (National Center for Advancing Translational Sciences (NCATS), 2011):
The list shows a part of the results. Shown are side measurements of this screen, not its main read-out; they come without a call. Compounds called inactive in the main read-out are mostly missing here. The note in brackets gives the kind of curve behind each potency; many fits are weak.

Assay: qHTS Assay to Find Inhibitors of Chronic Active B-Cell Receptor Signaling
Conditions: ABC-DLBCL IkBa-CBG/CBR reporter, luminescence ratio (green luciferase fused to IkBa over red control in TMD8 lymphoma cells), 4 h
Procedure, shortened: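 Compounds up to 46 uM were incubated four hours with TMD8 cells whose green CBG68 luciferase is fused to IkappaBalpha; red CBR luminescence normalised the signal, and concentration-effect curves were fitted to fusion, red and ratio data.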

[1] = measured here: CBR red luminescence, cell number
[2] = measured here: IkBa-CBG green luminescence

O=C(Nc1cnc2ccccc2c1)c1ccco1
AC50 [1]: 25.1 µM [falling, single point]

CCOC(=O)C1CCN(Cc2c(C(=O)N3CCOCC3)nc3c(C)cccn23)CC1
AC50 [1]: 0.0891 µM [falling, full curve, poor fit]

CCOC(=O)Cn1c(CN2CCc3ccccc3C2)nc2c1c(=O)n(C)c(=O)n2C
AC50 [1]: 0.146 µM [rising, full curve, poor fit]

Cc1ccc(NC(=O)CN(C)C(=O)COc2ccccc2-c2ccccc2)cc1
AC50 [1]: 29.1 µM [falling, single point]

CCOC(=O)C1(Cc2cccc(F)c2)CCN(C(=O)C2CCOCC2)CC1
AC50 [1]: 0.224 µM [rising, full curve, poor fit]

Cc1ccc(-c2cc3nc(-c4ccccc4)cc(N)n3n2)cc1
AC50 [1]: 0.411 µM [falling, full curve]

CCCCC(=O)Nc1ccc(C(=O)NNC(=S)NC(=O)c2cccs2)cc1
AC50 [1]: 3.26 µM [falling, partial curve, poor fit]

CCOc1cc(/C=N/NC(=O)c2ccc(O)cc2)ccc1Oc1nc(Cl)ncc1F
AC50 [1]: 2.51 µM [falling, full curve]

Cc1cccc(NC(=O)c2ccc(N3C(=O)C4C5C=CC(C6CC56)C4C3=O)cc2)c1 (centres undefined)
AC50 [1]: 3.55 µM [falling, partial curve]

COC(=O)CNC(c1ccccc1)c1cc(Cl)ccc1NC(=O)c1cccc(Cl)c1 (centres undefined)
AC50 [1]: 29.1 µM [falling, single point]

Cc1cc(C)c(S(=O)(=O)/N=C2/C=C(Sc3ncn[nH]3)C(=O)c3ccccc32)cc1C
AC50 [1]: 3.26 µM [falling, partial curve]

CC1=CC(C)(C)Nc2ccc(OC(=O)c3ccco3)cc21
AC50 [1]: 7.94 µM [falling, partial curve]

CCOc1ccc(/C=N/NC(=O)c2ccccc2O)cc1CN1CC2CC(C1)c1cccc(=O)n1C2 (centres undefined)
AC50 [1]: 1.3 µM [falling, partial curve]

CC(=O)Nc1ccc(NC(=O)C(C)OC(=O)C2(c3ccc(F)cc3)CCCC2)cc1 (centres undefined)
AC50 [1]: 22.4 µM [falling, single point] | AC50 [2]: 14.1 µM [rising, partial curve, poor fit]

CCOC(=O)C1(Cc2cccc(OC)c2)CCN(Cc2cccnc2)CC1
AC50 [1]: 11.2 µM [falling, partial curve]

CCn1c(NC(=O)c2nn(C)cc2Br)nc2ccccc21
AC50 [1]: 18.4 µM [falling, single point]

COc1cccc(C(=O)Nc2ccc(NC(C)=O)cn2)c1
AC50 [1]: 6.51 µM [falling, full curve, poor fit]

Cc1cccc(NC(=O)/C=C/c2ccc(Cl)cc2)n1
AC50 [1]: 2.06 µM [falling, full curve]

COc1ccccc1CNS(=O)(=O)c1cc2c3c(c1)CCN3C(=O)CC2
AC50 [1]: 1.46 µM [falling, full curve, poor fit]

CCc1ccc(C(O)(CNCc2ccccc2)c2ccccc2)cc1 (centres undefined)
AC50 [1]: 3.55 µM [falling, single point]

COc1ccc(Cl)cc1NC(=O)CN(C)CC(=O)Nc1ccccc1N1CCOCC1
AC50 [1]: 0.1 µM [falling, full curve, poor fit] | AC50 [2]: 12.6 µM [falling, single point]

Cc1ccc(/C=[N+](/C)[O-])cc1
AC50 [1]: 35.5 µM [falling, single point]

CC(C)c1ccc(S(=O)(=O)N2CCN(C(=O)c3cccc(F)c3)CC2)cc1
AC50 [1]: 7.31 µM [falling, partial curve, poor fit]

Cn1cccc1CC(=O)NNC(=O)Nc1ccccc1F
AC50 [1]: 4.11 µM [falling, partial curve]

Cc1cc(C)cc(OCC(=O)OCC(=O)NC2CCCC2)c1
AC50 [1]: 6.51 µM [rising, single point]

COc1ccc(-c2nc(C(=O)NCC3CCCO3)cc3c2[nH]c2ccccc23)cc1 (centres undefined)
AC50 [1]: 10 µM [falling, partial curve, poor fit]

CCN(Cc1cnn(C)c1)C(=O)c1ccc2nc(Cc3cccc(Cl)c3)oc2c1
AC50 [1]: 11.2 µM [falling, single point]

CN(C)c1ccc(N/C=C/C(=O)c2ccccc2)cc1
AC50 [1]: 23.1 µM [falling, partial curve, poor fit]

CC(C)C(NC(=O)c1cccs1)c1nnc(SCC(=O)Nc2nccs2)n1C (centres undefined)
AC50 [1]: 6.51 µM [falling, partial curve, poor fit] | AC50 [2]: 7.31 µM [rising, partial curve, poor fit]

C/C(=N\NC(=O)C1CCCN(S(=O)(=O)c2ccccc2)C1)c1ccccn1 (centres undefined)
AC50 [1]: 23.1 µM [falling, partial curve, poor fit]

COC(=O)c1ccccc1NC(=O)c1ccc(Cn2cc(Cl)cn2)o1
AC50 [1]: 35.5 µM [falling, single point]

CCNC(=S)N(CCc1c(C)[nH]c2ccc(C)cc12)Cc1cccs1
AC50 [1]: 35.5 µM [falling, single point] | AC50 [2]: 14.1 µM [rising, partial curve, poor fit]

CC(C)OC(=O)c1c(NC(=O)C2CC=CCC2C(=O)O)sc2c1CCCCC2 (centres undefined)
AC50 [1]: 22.4 µM [falling, partial curve, poor fit]

Cc1nc(NCc2ccccc2)sc1C(=O)Nc1ccccc1
AC50 [1]: 15.8 µM [falling, single point]

Cc1ccc(N2CC(C(=O)Nc3ccc(Br)cc3)CC2=O)cc1 (centres undefined)
AC50 [1]: 0.794 µM [rising, full curve, poor fit]

COc1ccc(-n2ncc3c(NCCC4=CCCCC4)ncnc32)cc1
AC50 [1]: 5.62 µM [rising, full curve, poor fit]

CC1=Nc2ccccc2/C1=C/c1c(N)n2c(S(=O)(=O)CC(C)C)nsc2nc1=O
AC50 [1]: 11.2 µM [falling, partial curve]

COc1ccc(-c2oc3ncnc(NCCCN(C)C)c3c2-c2ccc(OC)cc2)cc1
AC50 [1]: 35.5 µM [falling, single point]

CCN1C(=O)c2cccc3c(NC(=O)c4cccc(N5C(=O)CCC5=O)c4)ccc1c23
AC50 [1]: 11.2 µM [rising, partial curve] | AC50 [2]: 22.4 µM [falling, partial curve, poor fit]
